Test results reported in publication doi:10.1101/2025.04.02.646914.
Where a chain is given by its changes, count along the chain named. For at least one entry, the source does not settle the construct or the ends of the probe. For some of these results: The comparison behind a weaker result is the experiment's own reference, which may not be listed here. For some of these results: At least one verdict rests on a figure or table, not on a statement of the authors. Where a protein sequence is shown, tags need not be part of it.

What was measured:
Assay in all cases: EMSA
Settings in all cases: 5 mM Mg2+, 1 g/L yeast tRNA
SRSF2 RRM K36N (human) = target: T1, SRSF2 RRM K36N (human) (UniProt Q01130)
T1 sequence (looked up, limits assumed): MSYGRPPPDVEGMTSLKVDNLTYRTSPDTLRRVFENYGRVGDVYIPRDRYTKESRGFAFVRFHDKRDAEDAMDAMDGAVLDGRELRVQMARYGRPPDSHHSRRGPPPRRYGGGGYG

SRSF2 RRM S26L (human) = target: T2, SRSF2 RRM S26L (human) (UniProt Q01130)
T2 sequence (looked up, limits assumed): T1 sequence (looked up, limits assumed) with S26L, N36K

SRSF2 RRM WT (human) = target: T3, SRSF2 RRM WT (human) (UniProt Q01130)
T3 sequence (looked up, limits assumed): T1 sequence (looked up, limits assumed) with N36K

SRSF2 RRM P95H (human) = target: T4, SRSF2 RRM P95H (human) (UniProt Q01130)
T4 sequence (looked up, limits assumed): T1 sequence (looked up, limits assumed) with N36K, P95H

UUAACAAUUGGAGUC [5' fluoro MELK]
binding result (SRSF2 RRM K36N (human)): binds more weakly | binding result (SRSF2 RRM S26L (human)): binds more weakly | binding result (SRSF2 RRM WT (human)): binds | binding result (SRSF2 RRM P95H (human)): binds more weakly
